Measurements reported in PubChem BioAssay AID504764 (Drosophila RNAi Screening Center, 2011)
The deposit covers about 22,000 reagents; this is an unselected part of those with a known target gene and a result. In the full data, 403 (1.9%) are marked active. 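Unnormalised raw counts per well; ratio z-scores behind the hit calls and whether each hit raises or lowers signal are not deposited.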 A plus sign joins genes that one reagent is predicted to hit. Not given: the amount of reagent.

Test: 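Knock-downs that raise or lower a Notch target reporter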 (primary screen)
System: Drosophila Kc167 cells
Knock-down reagent: long dsRNA against Drosophila genes
Timing: about 5 days (4 days dsRNA, then 24 h after transfection)
Challenge: transfection of constitutively active membrane-tethered Notch lacking the extracellular domain, read 24 h later
Measurement: 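Firefly luciferase from an E(spl)m3 reporter with active Notch, plus control-promoter and uninduced reporter wells for normalisation; unnormalised counts, duplicate wells a and b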
Reading the numbers: induced reporter light, run 1, well a and induced reporter light, run 1, well b: higher = more light from the Notch target reporter with active Notch; control promoter light, run 1, well a and control promoter light, run 1, well b: higher = more light from the viral control promoter (cell number, transfection, viability); uninduced reporter light, run 1, well a: higher = more light from the Notch target reporter without active Notch
Hit rule: 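Wells with low control signal or poorly matching duplicates excluded; duplicates averaged; per source plate, z beyond ±2 for induced/control log2 ratio or beyond ±1.8 for induced/uninduced marks a hit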
Meaning of the calls: active = modifier hit (raised or lowered Notch signal); inactive = not a hit

target gene | amplicon | induced reporter light, run 1, well a | induced reporter light, run 1, well b | control promoter light, run 1, well a | control promoter light, run 1, well b | uninduced reporter light, run 1, well a | activity call
Nup58 (Nucleoporin 58kD) | DRSC16235 | 1.51e5 | 1.49e5 | 1.82e5 | 1.59e5 | 12300 | inactive
PolD3 (DNA polymerase delta subunit 3) | DRSC01961 | 1.92e5 | 1.64e5 | 1.78e5 | 1.87e5 | 14500 | inactive
CG4045 | DRSC18518 | 1.35e5 | 1.68e5 | 2.36e5 | 2.12e5 | 11520 | inactive
CG30334 | DRSC05345 | 2.36e5 | 2.33e5 | 2.00e5 | 2.14e5 | 17828 | inactive
GstD7 (Glutathione S transferase D7) | DRSC16688 | 90995 | 99185 | 1.35e5 | 1.14e5 | 9580 | inactive
scat (scattered) | DRSC02722 | 2.17e5 | 2.18e5 | 1.53e5 | 1.68e5 | 16365 | inactive
CG15673 | DRSC04263 | 40470 | 40805 | 43595 | 53020 | 2670 | inactive
MESK2 + CG10494 | DRSC04259 | 65610 | 54325 | 42575 | 61815 | 2178 | inactive
psidin (phagocyte signaling impaired) | DRSC15660 | 1.38e5 | 1.17e5 | 1.63e5 | 1.49e5 | 8415 | inactive
nub (nubbin) | DRSC01260 | 1.55e5 | 1.25e5 | 1.53e5 | 1.69e5 | 8895 | inactive
nub (nubbin) | DRSC02498 | 1.61e5 | 1.77e5 | 1.63e5 | 1.63e5 | 15265 | inactive
nub (nubbin) | DRSC02499 | 66355 | 72460 | 58640 | 67630 | 6250 | inactive
nub (nubbin) | DRSC03583 | 1.13e5 | 1.22e5 | 1.27e5 | 1.36e5 | 10705 | inactive
Dscam3 (Down syndrome cell adhesion molecule 3) | DRSC14525 | 2.35e5 | 2.13e5 | 2.00e5 | 2.23e5 | 18150 | inactive
Dscam3 (Down syndrome cell adhesion molecule 3) | DRSC16376 | 2.28e5 | 2.08e5 | 1.71e5 | 1.79e5 | 15842 | inactive
CG14731 | DRSC14952 | 49635 | 78170 | 63885 | 47770 | 2530 | inactive
CG11398 | DRSC18625 | 93345 | 93135 | 1.55e5 | 1.65e5 | 7442 | inactive
Serinc (Serine incorporator) | DRSC11296 | 1.15e5 | 1.16e5 | 63810 | 75190 | 7620 | inactive
krz (kurtz) | DRSC16979 | 1.24e5 | 1.53e5 | 1.89e5 | 2.22e5 | 9775 | inactive
sti (sticky) | DRSC09739 | 1.62e5 | 1.16e5 | 2.08e5 | 1.63e5 | 9160 | inactive
sti (sticky) | DRSC09740 | 2.65e5 | 1.59e5 | 2.18e5 | 22785 | 16065 | inactive
tef (teflon) | DRSC07301 | 1.15e5 | 99585 | 1.83e5 | 2.28e5 | 8315 | inactive
CG13836 (retired record) | DRSC14686 | 1.91e5 | 1.39e5 | 2.06e5 | 2.18e5 | 14115 | inactive
RpL38 (Ribosomal protein L38) | DRSC07818 | 1.01e5 | 73505 | 1.38e5 | 1.27e5 | 3840 | inactive
Ir7c (Ionotropic receptor 7c) | DRSC18007 | 1.70e5 | 1.84e5 | 3.27e5 | 3.24e5 | 12040 | inactive
CG11409 | DRSC18579 | 1.77e5 | 2.30e5 | 2.49e5 | 2.29e5 | 13885 | inactive
Ddc (Dopa decarboxylase) | DRSC03314 | 81080 | 56140 | 50480 | 60695 | 3435 | inactive
stas (Stasimon) | DRSC20104 | 1.78e5 | 1.49e5 | 1.45e5 | 1.10e5 | 10985 | inactive
Cyp28d1 (Cytochrome P450 28d1) | DRSC03298 | 1.87e5 | 1.73e5 | 1.79e5 | 1.58e5 | 15975 | inactive
CG3492 | DRSC04373 | 94330 | 78875 | 67010 | 62275 | 6385 | inactive
Wdr24 (WD repeat domain 24) | DRSC14151 | 1.54e5 | 1.70e5 | 2.15e5 | 2.35e5 | 12560 | inactive
IP3K2 (Inositol 1,4,5-triphosphate kinase 2) | DRSC19500 | 1.52e5 | 1.26e5 | 2.00e5 | 2.00e5 | 9120 | inactive
IP3K2 (Inositol 1,4,5-triphosphate kinase 2) | DRSC19747 | 1.20e5 | 1.31e5 | 2.92e5 | 2.35e5 | 8640 | inactive
Mal-A2 (Maltase A2) | DRSC07460 | 2.08e5 | 2.22e5 | 2.59e5 | 2.30e5 | 16205 | inactive
CG13008 | DRSC19527 | 36245 | 31230 | 22660 | 22105 | 3915 | inactive
CG13008 | DRSC19528 | 53205 | 47470 | 72605 | 35150 | 8082 | inactive
Ddr (Discoidin domain receptor) | DRSC00922 | 1.20e5 | 94875 | 1.41e5 | 1.58e5 | 7380 | inactive
Ddr (Discoidin domain receptor) | DRSC00923 | 1.19e5 | 1.21e5 | 1.46e5 | 1.61e5 | 8850 | inactive
Ddr (Discoidin domain receptor) | DRSC02150 | 1.96e5 | 1.60e5 | 2.07e5 | 2.15e5 | 10410 | inactive
Ddr (Discoidin domain receptor) | DRSC03229 | 1.55e5 | 1.33e5 | 1.85e5 | 1.55e5 | 7795 | inactive
Ddr (Discoidin domain receptor) | DRSC03230 | 1.75e5 | 1.64e5 | 2.14e5 | 2.01e5 | 12900 | inactive
Mapmodulin | DRSC06956 | 67175 | 73630 | 1.03e5 | 1.21e5 | 6955 | inactive
CG34224 | DRSC05269 | 1.98e5 | 1.59e5 | 2.24e5 | 2.69e5 | 18565 | inactive
CG17883 | DRSC07838 | 1.98e5 | 1.34e5 | 3.23e5 | 2.33e5 | 9085 | inactive
CG13891 | DRSC08361 | 1.08e5 | 1.05e5 | 2.21e5 | 1.76e5 | 6555 | inactive
CG16798 | DRSC02517 | 49300 | 37470 | 43135 | 40085 | 2750 | inactive
CG11768 | DRSC14377 | 19325 | 18045 | 16445 | 11600 | 3792 | inactive
CR10032 (pseudo) | DRSC12499 | 1.13e5 | 1.09e5 | 1.21e5 | 1.04e5 | 7505 | inactive
CG6765 | DRSC10706 | 1.91e5 | 1.84e5 | 1.95e5 | 1.38e5 | 8780 | inactive
hth (homothorax) | DRSC16967 | 60000 | 60480 | 49120 | 41340 | 4130 | inactive
CR41501 (pseudo) | DRSC07785 | 1.31e5 | 1.05e5 | 1.45e5 | 1.18e5 | 8995 | inactive
CG10562 | DRSC14257 | 2.06e5 | 2.46e5 | 2.97e5 | 2.85e5 | 16805 | inactive
Gycbeta100B (Guanylyl cyclase beta-subunit at 100B) | DRSC14039 | 1.04e5 | 1.20e5 | 1.17e5 | 1.39e5 | 7940 | inactive
Gycbeta100B (Guanylyl cyclase beta-subunit at 100B) | DRSC14040 | 88115 | 1.13e5 | 1.45e5 | 1.39e5 | 8660 | inactive
Gycbeta100B (Guanylyl cyclase beta-subunit at 100B) | DRSC16691 | 2.07e5 | 1.90e5 | 2.58e5 | 2.75e5 | 13075 | inactive
nan (nanchung) | DRSC10551 | 1.55e5 | 1.93e5 | 2.78e5 | 2.31e5 | 10542 | inactive
park (parkin) | DRSC11618 | 1.27e5 | 1.32e5 | 85605 | 95315 | 8630 | inactive
SC35 (SR family splicing factor SC35) | DRSC02502 | 18320 | 22295 | 19020 | 19620 | 3805 | inactive
SC35 (SR family splicing factor SC35) | DRSC03425 | 1.09e5 | 1.28e5 | 1.14e5 | 1.24e5 | 9570 | inactive
CG13309 | DRSC09980 | 1.42e5 | 1.51e5 | 2.18e5 | 1.81e5 | 19715 | inactive
Targ1 (Terminal ADP-ribose protein glycohydrolase 1) | DRSC11616 | 1.15e5 | 1.10e5 | 1.37e5 | 1.21e5 | 6555 | inactive
CR18275 + CG13373 | DRSC17900 | 1.62e5 | 1.56e5 | 1.86e5 | 2.12e5 | 11480 | inactive
CG31183 | DRSC14403 | 2.17e5 | 1.96e5 | 2.18e5 | 2.06e5 | 18290 | inactive
CG31183 | DRSC15554 | 2.45e5 | 2.42e5 | 3.02e5 | 3.35e5 | 18280 | inactive
